Reference: paper PMC12216206
Results are given in words; binding and its absence hold for the method and conditions named. Binding seen in cells or lysates may run through a third protein. These calls come from enrichment with a bait or labelling near it, and not all partners need be listed. Where a sequence is shown, tags or fusion partners need not be part of it.

Molecular target: T1, VERNALIZATION1 (VRN1) with C-terminal Strep-II/FLAG TAP tag (Arabidopsis thaliana) (UniProt Q8L3W1)
T1 sequence: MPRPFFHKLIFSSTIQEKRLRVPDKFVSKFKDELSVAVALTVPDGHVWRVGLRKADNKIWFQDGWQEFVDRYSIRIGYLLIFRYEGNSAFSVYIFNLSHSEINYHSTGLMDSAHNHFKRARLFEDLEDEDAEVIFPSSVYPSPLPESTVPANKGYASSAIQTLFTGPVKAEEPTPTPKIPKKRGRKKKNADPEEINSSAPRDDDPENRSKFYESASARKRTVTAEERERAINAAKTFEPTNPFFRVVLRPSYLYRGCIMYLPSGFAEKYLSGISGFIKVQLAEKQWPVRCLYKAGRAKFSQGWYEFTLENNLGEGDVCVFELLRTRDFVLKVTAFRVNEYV
Assay: affinity purification with mass spectrometry; anti-FLAG IP (Sigma F1804 on M-270 epoxy Dynabeads, overnight, 4 °C) of VRN1-FLAG from purified nuclei of seedlings crosslinked with 1% formaldehyde, treated with Benzonase and sonicated with 0.5% SDS; lines #24 and #37; WT FRI without the transgene as control; seedlings grown at warm temperature, also after three weeks of cold

binding: binds
Substance: FVE
